# PubChem BioAssay AID1259308, NCATS | 2017
# Purpose: 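Candidate targets for better recombinant protein yield in mammalian cells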 (primary screen)
# Cell system: human HEK293 embryonic kidney cells stably expressing firefly luciferase (HEK-CMV-Luc2-Hygro)
# Reagent: single siRNA against human genes, 0.8 pmol siRNA per well
# Duration: 72 h
# Read-out: 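Luciferase light (ONE-Glo) measured on one replicate plate set and viability (CellTiter-Glo) on the other, scaled to a negative control siRNA, with robust z-scores and luciferase per cell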
# Direction: total luciferase, z-score and total luciferase, % of control: higher = more reporter protein produced; luciferase per cell, z-score: higher = more reporter output per viable cell; viable cells, % of control: higher = more viable cells
# Call rule: 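Active when the median/MAD z-score for overall luciferase is greater than 3; a gene was taken forward for validation with new siRNAs if at least two of its three siRNAs passed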
# Calls: active = raised luciferase; inactive = no rise
# Shown is one part, drawn at random, of about 59,000 reagents tested. About 1,510 of them (2.6%) were called active. 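Calls use total luciferase alone and ignore viability, so some active siRNAs may act by altering cell number.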 Reagents against one gene are numbered here.
gene,reagent,"total luciferase, z-score","total luciferase, % of control","luciferase per cell, z-score","viable cells, % of control",activity call
CLIP2 (CAP-Gly domain containing linker protein 2),1,0.201,85.9,0.0532,94.6,inactive
CLIP2 (CAP-Gly domain containing linker protein 2),2,-0.113,79.6,-0.454,100,inactive
CLIP2 (CAP-Gly domain containing linker protein 2),3,1.36,109,0.629,103,inactive
ZC3H12B (zinc finger CCCH-type containing 12B),1,0.146,84.8,-0.649,112,inactive
ZC3H12B (zinc finger CCCH-type containing 12B),2,-1.32,55.7,-1.11,83.3,inactive
ZC3H12B (zinc finger CCCH-type containing 12B),3,-0.312,75.7,-0.35,92.7,inactive
GLG1 (golgi glycoprotein 1),1,2.71,136,1.62,99,inactive
GLG1 (golgi glycoprotein 1),2,0.904,99.9,0.177,107,inactive
GLG1 (golgi glycoprotein 1),3,-1.51,51.8,-1.72,90.9,inactive
COMMD1 (copper metabolism domain containing 1),1,-0.128,79.3,-0.412,98.8,inactive
COMMD1 (copper metabolism domain containing 1),2,2.32,128,2.07,83,inactive
COMMD1 (copper metabolism domain containing 1),3,1.59,114,0.895,100,inactive
PDLIM2 (PDZ and LIM domain 2),1,0.894,99.7,1.27,79.6,inactive
PDLIM2 (PDZ and LIM domain 2),2,-1.8,46.2,-1.97,86.7,inactive
PDLIM2 (PDZ and LIM domain 2),3,0.00386,82,0.0564,90.2,inactive
NCOR2 (nuclear receptor corepressor 2),1,-1.64,49.3,-2.12,96.4,inactive
NCOR2 (nuclear receptor corepressor 2),2,-0.736,67.3,-1.09,100,inactive
NCOR2 (nuclear receptor corepressor 2),3,-0.646,69,0.044,76.3,inactive
UPP1 (uridine phosphorylase 1),1,0.178,85.4,-0.031,96.2,inactive
UPP1 (uridine phosphorylase 1),2,1.86,119,1.08,100,inactive
UPP1 (uridine phosphorylase 1),3,-3,22.2,-3.27,58.7,inactive
FUBP3 (far upstream element binding protein 3),1,-0.997,62.1,-0.993,90.1,inactive
FUBP3 (far upstream element binding protein 3),2,-0.287,76.2,-0.786,105,inactive
FUBP3 (far upstream element binding protein 3),3,2.1,124,2.26,76.3,inactive
TCF12-DT (TCF12 divergent transcript),1,0.854,98.9,0.241,104,inactive
TCF12-DT (TCF12 divergent transcript),2,-0.52,71.5,-0.406,89,inactive
TCF12-DT (TCF12 divergent transcript),3,-0.88,64.4,-1.48,106,inactive
HNF1A (HNF1 homeobox A),1,1.23,106,0.638,101,inactive
HNF1A (HNF1 homeobox A),2,-0.357,74.8,0.195,79.4,inactive
HNF1A (HNF1 homeobox A),3,-0.386,74.2,-0.453,93.4,inactive
DPH6 (diphthamine biosynthesis 6),1,-0.171,78.5,1.14,65,inactive
DPH6 (diphthamine biosynthesis 6),2,-0.398,74,-0.809,102,inactive
DPH6 (diphthamine biosynthesis 6),3,2.18,125,2.4,74.3,inactive
SELENOV (selenoprotein V),1,-1.01,61.8,-0.61,81.1,inactive
SELENOV (selenoprotein V),2,-0.281,76.3,-0.694,102,inactive
SELENOV (selenoprotein V),3,0.619,94.2,-0.26,113,inactive
COCH (cochlin),1,1.96,121,1.92,81.4,inactive
COCH (cochlin),2,1.41,110,0.183,117,inactive
COCH (cochlin),3,-0.92,63.6,-1.08,94.5,inactive
PPP1R14A (protein phosphatase 1 regulatory inhibitor subunit 14A),1,-1.23,57.4,-1.86,105,inactive
PPP1R14A (protein phosphatase 1 regulatory inhibitor subunit 14A),2,0.419,90.2,0.226,95,inactive
PPP1R14A (protein phosphatase 1 regulatory inhibitor subunit 14A),3,-0.129,79.3,-0.502,101,inactive
MRPL50 (mitochondrial ribosomal protein L50),1,0.218,86.2,0.0297,95.6,inactive
MRPL50 (mitochondrial ribosomal protein L50),2,-1.36,54.8,0.343,56,inactive
MRPL50 (mitochondrial ribosomal protein L50),3,-0.139,79.1,-0.461,99.8,inactive
NUP107 (nucleoporin 107),1,0.117,84.2,0.611,80.1,inactive
NUP107 (nucleoporin 107),2,0.616,94.1,0.961,81.7,inactive
NUP107 (nucleoporin 107),3,0.018,82.2,0.475,81.1,inactive
MLPH (melanophilin),1,1.78,117,3.17,56.9,inactive
MLPH (melanophilin),2,0.126,84.4,-0.424,105,inactive
MLPH (melanophilin),3,-1.55,51.1,-1.17,77.9,inactive
TAF9 (TATA-box binding protein associated factor 9),1,-0.598,70,-1.82,126,inactive
TAF9 (TATA-box binding protein associated factor 9),2,-0.744,67.1,0.0556,73.9,inactive
TAF9 (TATA-box binding protein associated factor 9),3,-1.03,61.4,-0.927,87.6,inactive
"MPL (MPL proto-oncogene, thrombopoietin receptor)",1,0.741,96.6,1.28,77.1,inactive
"MPL (MPL proto-oncogene, thrombopoietin receptor)",2,-0.6,70,-0.962,101,inactive
"MPL (MPL proto-oncogene, thrombopoietin receptor)",3,1.36,109,1.56,80.7,inactive
